No constants are given. Whether binding was seen depends on the method and setting. In cells and extracts the contact can be indirect. These calls come from enrichment with a bait or labelling near it, and not all partners need be listed.
Target: TSPAN3 as used for the mass spectrometric analysis (construct not stated) (UniProt O60637)
Experiment: affinity purification with mass spectrometry; coimmunoprecipitation and mass spectrometric assay, performed as previously described (ref. 22); bait construct and cells not told

Amino acid sequences for entries named in this document (tags omitted).
UniProt O60637: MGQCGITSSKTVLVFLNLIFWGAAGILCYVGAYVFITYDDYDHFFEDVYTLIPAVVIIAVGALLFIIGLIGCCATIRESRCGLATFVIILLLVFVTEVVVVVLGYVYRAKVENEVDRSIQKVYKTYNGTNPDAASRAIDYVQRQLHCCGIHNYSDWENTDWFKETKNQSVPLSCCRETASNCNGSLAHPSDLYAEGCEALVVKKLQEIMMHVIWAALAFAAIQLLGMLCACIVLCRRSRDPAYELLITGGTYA
UniProt P62491: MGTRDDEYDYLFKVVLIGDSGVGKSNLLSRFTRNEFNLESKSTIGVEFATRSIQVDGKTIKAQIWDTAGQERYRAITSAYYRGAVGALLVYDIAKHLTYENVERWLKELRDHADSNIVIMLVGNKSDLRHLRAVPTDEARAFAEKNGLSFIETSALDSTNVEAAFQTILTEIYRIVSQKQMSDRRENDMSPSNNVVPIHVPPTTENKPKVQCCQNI

binding: binds
Substance: Ras-related protein Rab-11a, endogenous in A549 cells (from UniProt P62491 1-216)
